Source: PubChem BioAssay AID504375 (National Center for Advancing Translational Sciences (NCATS), 2011)
The whole screen tested about 1,600 compounds, of which about 25 (2%) were called active. Inconclusive results (about 7%) are left out. The call rests on the fitted dose curve; in most records, active means well fitted inhibition curve with a large enough effect; inconclusive means small, poorly fitted or top-dose-only effect, or effect the other way; inactive means no such curve, though single readings can be large or run the other way. The list shows a part of the results.

Chains of the proteins cited; added tags and fusions are not shown.
UniProt Q01196, whole entry, looked up: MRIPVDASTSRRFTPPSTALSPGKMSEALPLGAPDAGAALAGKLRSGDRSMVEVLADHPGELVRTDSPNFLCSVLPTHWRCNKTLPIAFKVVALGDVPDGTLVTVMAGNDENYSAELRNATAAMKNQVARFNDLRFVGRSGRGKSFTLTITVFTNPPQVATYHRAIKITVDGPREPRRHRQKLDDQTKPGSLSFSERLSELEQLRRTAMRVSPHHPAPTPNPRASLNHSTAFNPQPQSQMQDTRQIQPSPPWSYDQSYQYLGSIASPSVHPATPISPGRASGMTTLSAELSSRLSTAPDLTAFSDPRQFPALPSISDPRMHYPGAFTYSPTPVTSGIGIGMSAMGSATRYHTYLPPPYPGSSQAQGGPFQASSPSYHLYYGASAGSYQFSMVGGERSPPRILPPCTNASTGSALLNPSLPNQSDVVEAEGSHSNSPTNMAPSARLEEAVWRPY
UniProt Q13951, whole entry, looked up: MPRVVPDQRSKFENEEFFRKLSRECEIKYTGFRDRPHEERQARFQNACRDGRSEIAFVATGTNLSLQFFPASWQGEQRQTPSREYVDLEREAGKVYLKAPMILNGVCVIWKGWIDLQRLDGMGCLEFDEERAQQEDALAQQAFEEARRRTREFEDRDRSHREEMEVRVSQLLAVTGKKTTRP

Target: Runt-related transcription factor 1 (Homo sapiens) + Core-binding factor subunit beta (Homo sapiens) (UniProt Q01196+Q13951)
Assay: qHTS Assay for Compounds Blocking the Interaction Between CBF-beta and RUNX1 for the Treatment of Acute Myeloid Leukemia: Hit Validation with Orthogonal Assay
Settings: CBFbeta-RUNX1 binding orthogonal assay, biochemical; series mostly up to 41 µM; activity change, negative = inhibition: at the top concentration
In short: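 This is an orthogonal TR-FRET assay. His6-CBF-beta and biotin-RUNX1 (30 nM each) were preincubated with compound for 30 min, then Tb-anti-His antibody (0.44 ng) and streptavidin-XL665 (5 nM) were added. The signal was read after 90 min.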
On the % scale 0 is the no-effect control and ±100 the full control effect; potency means the concentration at half of the fitted maximal effect.

| SMILES | activity change, negative = inhibition | Potency |
| --- | --- | --- |
| Cc1cc2nc(-c3ccccc3)cc(=O)n2[nH]1 | inactive: -13.2% |  |
| CCn1c(NC(=O)C(C)C)c(-c2cccs2)c(=O)c2ccccc21 | inactive: -18.4% |  |
| Fc1ccc(C2=Nn3c(nnc3-c3ccco3)SC2)cc1 | inactive: 9.71% |  |
| Cc1ccc(S(=O)(=O)NNC(=O)c2cc(C)cs2)cc1 | inactive: 8.56% |  |
| Clc1ccc(Nc2ncnc3c2nnn3Cc2ccccc2)cc1 | inactive: 2.04% |  |
| CCOc1ccc(Nc2c3ccccc3nc3ccccc23)cc1 | inactive: 11.1% |  |
| CC1=NN(c2nc3ccccc3[nH]2)C(=O)C1Cc1ccccc1 (configuration not stated) | inactive: 9.77% |  |
| O=C(CSc1nc2cc(Cl)c(Cl)cc2[nH]1)c1ccc2c(c1)OCO2 | inactive: -10% |  |
| CC(C)(C)SCCNS(=O)(=O)c1ccc(C#N)cc1 | inactive: 12.4% |  |
| O=[N+]([O-])c1cccnc1Oc1cccnc1 | inactive: 32.5% |  |
| OC[C@H](O)[C@H](O)[C@@H](O)[C@@H](O)[C@@H]1SC(c2ccccc2)=NN1c1ccccc1 | inactive: 11% |  |
| CCN(CC)CC(O)Cn1c(-c2cccc(Cl)c2)nc2cc(C)c(C)cc21 (configuration not stated) | inactive: 1.63% |  |
| C=CCOc1c(CCC)cc(CCC)cc1C(N)=O | inactive: 10.7% |  |
| COc1nc(C)ccc1-c1noc(-c2cccs2)n1 | inactive: -3.73% |  |
| CCOC(=O)c1nn(-c2ccc([N+](=O)[O-])cc2)cc1O | inactive: 64.7% |  |
| O=C1NCCc2c1[nH]c1ccccc21 | inactive: -12% |  |
| CCOC(=O)c1ccc(N2CCCCC2)c(NS(=O)(=O)c2ccc(C)cc2)c1 | inactive: 10.9% |  |
| Fc1c(CSC(=S)N2CCOCC2)cccc1CSC(=S)N1CCOCC1 | inactive: 8.61% |  |
| COc1ccc(Oc2ccc(-c3ccn[nH]3)cc2)cc1 | inactive: -5.37% |  |
| O=S(=O)(Nc1cccc(CCc2ccccn2)c1)c1ccc(Cl)cc1 | inactive: 1.84% |  |
| O=C(N/N=C/c1ccc2c(c1)OCCO2)c1ccncc1 | inactive: 12.8% |  |
| CN(C)C=Nc1ccc(Cl)c(Cl)c1 | inactive: 6.66% |  |
| CCOC(=O)c1nnn2c1nc(N1CCCCC1)c1ccccc12 | inactive: -6.21% |  |
| CCCCC1CCCC12NC(=O)NC2=O (configuration not stated) | inactive: -8.01% |  |
| Nc1ncccc1OCc1ccc(Cl)c(Cl)c1 | inactive: 6.83% |  |

Fetched one by one from above, 4 records:

| SMILES | activity change, negative = inhibition | Potency |
| --- | --- | --- |
| CCOc1ccc(Nc2c3ccccc3nc3ccccc23)cc1 | inactive: 11.1% |  |
| Cc1cc2nc(-c3ccccc3)cc(=O)n2[nH]1 | inactive: -13.2% |  |
| COc1ccc(Oc2ccc(-c3ccn[nH]3)cc2)cc1 | inactive: -5.37% |  |
| O=[N+]([O-])c1cccnc1Oc1cccnc1 | inactive: 32.5% |  |

The list continues:

| SMILES | activity change, negative = inhibition | Potency |
| --- | --- | --- |
| Clc1ccccc1/C=C/c1nc(-c2ccccn2)no1 | inactive: 19.8% |  |
| CCCCNC(=O)Nc1ncn[nH]1 | inactive: -0.856% |  |
| COc1ccc(/C=N/OC(=O)c2ccc(Cl)cc2)c(Cl)c1OC | inactive: -9.47% |  |
| CCN1C(=O)[C@@H]2C(C(=O)c3cnccn3)=NN[C@@H]2C1=O | inactive: 6.63% |  |
| C/C(=N\Nc1ccc(Cl)c(C(=O)O)c1)c1cccs1 | inactive: 6.61% |  |
| Cc1cccc(OCC(=O)N(Cc2ccc(N(C)C)cc2)C2CCS(=O)(=O)C2)c1 (configuration not stated) | inactive: 1.09% |  |
| N#Cc1cc(-c2ccccc2)[nH]c1-c1nccc2ccccc12 | inactive: 7.47% |  |
| CCn1c(O)c(C=NCc2ccccc2)sc1=S | inactive: 18.3% |  |
| Cc1cc(OCC(=O)c2ccc(C(F)(F)F)cc2)n2cnnc2n1 | inactive: 4.58% |  |
| C/C(=N\NC(=O)c1cc(-c2cccc([N+](=O)[O-])c2)n[nH]1)c1ccc(F)cc1 | inactive: 24.3% |  |
| O=C(c1ccc(Cn2ccc([N+](=O)[O-])n2)cc1)N1CCN(Cc2ccccc2)CC1 | inactive: 19.1% |  |
| Cc1ccccc1CSc1nnc([C@@H]2CCCN2)o1 | inactive: -22.8% |  |
| CC(C)CC(=O)NC(=S)Nc1ccc(N2CCCC2)c(Cl)c1 | inactive: 2.43% |  |
| CC1CC2OC(=O)C3(C)CCCC(C)(C23)C1(O)CCc1ccoc1 (configuration not stated) | inactive: -2.79% |  |
| COc1ccc([N+](=O)[O-])cc1NC(=O)N(C)Cc1ccco1 | inactive: 26.4% |  |
| CC(=O)Nc1nc(C)c(-c2csc(Nc3ccc(S(N)(=O)=O)cc3)n2)s1 | inactive: -8.18% |  |
| O=C(N/N=C/c1ccc2nccnc2c1)c1ccncc1 | inactive: 56.7% |  |
| Nn1c(SCc2cccc(F)c2)nnc1-c1cccnc1 | inactive: 1.79% |  |
| COCCn1c(-c2ccc(Cl)cc2)nc2oc3cc(OC)ccc3c(=O)c2c1=O | inactive: 10.5% |  |
| O=C(CNCc1ccco1)Nc1cccc(S(=O)(=O)N2CCCCC2)c1 | inactive: 12.1% |  |
| COc1ccc(C(=O)/C=C/Nc2cc(C)ccn2)cc1 | inactive: 24.1% |  |
| Cc1ccc(S(=O)(=O)Nc2cc(-c3ccccc3)nn2C)cc1Cl | inactive: 2.83% |  |
| CN(C)c1cc(-c2ccc(C#N)cc2)oc(=O)c1Cl | inactive: 19.3% |  |
| COC(=O)c1ccc(S(=O)(=O)NC(C)(C)C)n1C | inactive: 11% |  |
| CCCCCNc1nc2sc3c(c2c(=O)n1-c1cccc(Cl)c1)CCN(C)C3 | inactive: 10.2% |  |

| SMILES | activity change, negative = inhibition | Potency |
| --- | --- | --- |
| COc1cscc1C(=O)O | inactive: 0.991% |  |
| CC1CC(C)(C)NC(=S)O1 (configuration not stated) | inactive: -6.64% |  |
| Cc1cccc(C)c1NC(=S)N1CC(C)OC(C)C1 (configuration not stated) | inactive: 1.41% |  |
| Cc1c(-c2ccccc2)[n+](=O)c2c(n1[O-])CCCC2 | inactive: -8.42% |  |
| COc1cccc(/C=N/NC(=O)CCn2cnc3ccccc32)c1 | inactive: 1.09% |  |
| COc1ccc(NC(=O)c2cccs2)cn1 | inactive: -6.46% |  |
| CCCCSc1cc(C)nc(N)n1 | inactive: 2.58% |  |
| CCCCNC(=O)NCCN1CCOCC1 | inactive: 4.56% |  |
| Cc1csc2ncnc(N3CCN(C(=S)Nc4ccc(F)cc4F)CC3)c12 | inactive: 0.954% |  |
| CSc1cccc(NC(=O)C(=O)NCc2ccccc2)c1 | inactive: 2.9% |  |
| CCNc1nc(N)c(C(=O)C23CC4CC(CC(C4)C2)C3)s1 | inactive: 1.87% |  |
| COc1ccc(NC(=O)c2cc(S(=O)(=O)N3CCCC3)oc2C)cc1 | inactive: -17.2% |  |
| COc1ccc(-n2c(SCC(=O)Nc3cccc4ccccc34)nc(O)cc2=O)cc1 | inactive: 6.41% |  |
| CCCCC1C2C(=O)N(c3ccc(C)cc3)C(=O)C2ON1c1ccccc1 (configuration not stated) | inactive: 1.76% |  |
| C#CCCOC(=O)Nc1ccccc1 | inactive: -13.1% |  |
| C=CN1CCCC1=O | inactive: -6.45% [at 82.4 µM] |  |
| Cc1nc(C)c(-c2ccn(C(=O)NC(C)C)n2)s1 | inactive: -3.96% |  |
| Cc1cc(C)nc(S/C=C/C(=O)c2ccc(F)cc2)n1 | inactive: -0.82% |  |
| CC(=O)c1cnn(-c2c(Cl)cc(Cl)cc2Cl)c1C | inactive: 9.66% |  |
| O=C(O)c1ccc(COc2ccc3c(c2)CCC3)cc1 | inactive: -1.79% |  |
| CCOC(=O)c1cn2nc(Oc3ccc(C(=O)OC)cc3)ccc2n1 | inactive: -15.3% |  |
| C=CCN=C1S/C(=C\c2ccc(N(C)C)cc2)C(=O)N1CC=C | inactive: 20% |  |
| CCCCC12CN3CC(C)(CN(C1)C3c1ccc([N+](=O)[O-])o1)C2=O (configuration not stated) | inactive: 42.5% |  |
| Cc1ccc(/C=N/n2c(-c3cccc(Cl)c3)n[nH]c2=S)o1 | inactive: -16.6% |  |
| O=C(O)c1ccc(/C=N\Nc2ccc(S(=O)(=O)N3CCOCC3)cc2[N+](=O)[O-])cc1 | inactive: 30.7% |  |

| SMILES | activity change, negative = inhibition | Potency |
| --- | --- | --- |
| Cc1ccc(C2=NN(C(=O)CCC(=O)O)C(c3cccs3)C2)cc1 (configuration not stated) | inactive: 3.91% |  |
| CNC(=O)/C(C#N)=C1\SC(Cc2ccc(F)cc2)C(=O)N1c1ccccc1C (configuration not stated) | inactive: -6.1% |  |
| COc1cc(C(=O)NCC2(N3CCCCC3)CCCCC2)ccc1OCC(=O)N1CCOCC1 | inactive: 3.88% |  |
| O=[N+]([O-])/C=C/c1cc2ccccc2[nH]1 | inactive: 1.95% |  |
| CC(C)CC1C2C(=O)N(c3ccccc3)C(=O)C2ON1c1ccccc1 (configuration not stated) | inactive: -1.54% |  |
| Cc1cc(Cl)c2cc3ccccc3cc2n1 | inactive: -4.05% |  |
| COc1ccc(OC)c(/C=N/NC(=O)CCc2c(C)n[nH]c2C)c1 | inactive: 3.36% |  |
| NC(=S)Nc1cccc(Cl)c1 | inactive: 12.5% |  |
| COc1ccc(OC)c(/C=N/NC(=O)c2cnccn2)c1 | inactive: 26.2% |  |
| CN1C2CCC1CC(NC(=O)c1ccc(Cl)cc1)C2 (configuration not stated) | inactive: 10.2% |  |
| Cc1cccc(-c2n[nH]c(=S)n2/N=C/C=C/c2ccco2)c1 | inactive: -17.8% |  |
| CC(=O)C1C(=O)CC(c2ccc(Cl)cc2)CC1=O (configuration not stated) | inactive: -7.82% |  |
| CCN(CC)C(=S)SSC(=S)N(CC)CC | inactive: 8.2% [at 82.4 µM] |  |
| COC(=O)c1ccc(COc2ccc3c(c2)CCC3)o1 | inactive: 7.71% |  |
| COc1ccc(/C=N/n2nnnc2N)cc1OC | inactive: 17.3% |  |
| c1ccc(-c2ccccn2)nc1 | inactive: 3.96% [at 82.4 µM] |  |
| COc1ccc(C(=O)/C=C/c2cn(CC(O)CN3CCN(C)CC3)c3ccccc23)cc1OC (configuration not stated) | inactive: 10.2% |  |
| Cc1nn2c(NCc3cccnc3)c3c(nc2c1-c1ccccc1)CCC3 | inactive: 3.16% |  |
| O=C(CSc1n[nH]c(=O)[nH]c1=O)Nc1ccc2c(c1)C(=O)c1ccccc1C2=O | inactive: 24.7% |  |
| CC(C)c1nc(C#N)c(NN)o1 | inactive: 9.26% |  |
| N=c1c2c(ncn1CCCO)Oc1cc(O)ccc1C2c1ccccc1 (configuration not stated) | inactive: 1.47% |  |
| CCOC(=O)c1nnsc1N | inactive: -3.12% |  |
| CC(C)CCN1NC2(CCC(C)CC2)NC1=S (configuration not stated) | inactive: -8.44% |  |
| COC(=O)c1scc(C)c1NC(=O)CSc1ccc(Cl)cc1 | inactive: 7.74% |  |
| O=C(Nc1ccc(F)cc1)N1CCCN(c2ccc(C(F)(F)F)cn2)CC1 | inactive: 3.83% |  |

| SMILES | activity change, negative = inhibition | Potency |
| --- | --- | --- |
| O=C1Nc2c(ccc(Cl)c2Cl)C(=O)C1(F)c1ccccc1 (configuration not stated) | inactive: -0.171% |  |
| Nc1nc(CCl)nc(Nc2ccc3ccccc3c2)n1 | inactive: -14.2% |  |
| COc1ccc(NS(=O)(=O)c2ccc(Oc3c(C#N)cccc3C#N)cc2)cc1 | inactive: 19.5% |  |
| CC(C)(C)NC(=O)c1ccc(C(=O)NC(C)(C)C)cc1 | inactive: -8.67% |  |
| CC(C)(C)NC(=O)c1cccc2c1C(=O)c1ccccc1-2 | inactive: 19.1% |  |
| O=C(NC(=S)Nc1cc(C(F)(F)F)ccc1N1CCOCC1)c1ccco1 | inactive: -11.6% |  |
| NNC(=O)c1ccc(COCC(F)(F)C(F)F)cc1 | inactive: 18.8% |  |
| CCNc1nc(Cl)nc(-c2cn(-c3ccccc3)c3ccccc23)n1 | inactive: -12.2% |  |
| CCN(CC)C(=O)CSc1nnc2nnc3cc(Cl)ccc3n12 | inactive: 112% |  |
| NC(=S)Nc1cc(Cl)ccc1Cl | inactive: 2.34% |  |
| Cc1ccccc1/C=N/n1c(-c2ccccn2)n[nH]c1=S | inactive: -0.917% |  |
| CC1CC(=O)Nc2ccccc2N1S(=O)(=O)c1ccc(C#N)cc1 (configuration not stated) | inactive: 6.45% |  |
| CN(C)c1nc(-c2ccccn2)nnc1-c1ccccc1 |  | active: 22.4 µM |
| CCOC(=O)c1nnn2c3ccccc3c(=O)n(C)c12 | inactive: 8.61% |  |
| O=C(O)CSc1ccc(NC(=O)Nc2ccccc2F)cc1 | inactive: -3.32% |  |
| Cc1ccc(S(=O)(=O)Nc2cc(-c3ccccc3)nn2C)cc1 | inactive: -5.02% |  |
| COC(=O)c1ccc(S(=O)(=O)N(CCO)Cc2ccccc2)n1C | inactive: 6.67% |  |
| CCOC(=O)c1ccc(NC(=O)CC2SC3=NCCN3C2=O)cc1 (configuration not stated) | inactive: -0.306% |  |
| Cc1ccc(C2=Nc3ccccc3SC(c3cccc([N+](=O)[O-])c3)C2)cc1 (configuration not stated) | inactive: -0.0245% |  |
| Cc1ccc(NC(=S)Nc2ccc3[nH]c(=O)[nH]c3c2)cc1 | inactive: -1.76% |  |
| COc1ccc(-c2cn[nH]c2C)cc1 | inactive: 5.55% |  |
| COC(=O)c1ccc(S(=O)(=O)NCc2ccccc2)n1C | inactive: -10.2% |  |
